This is an account of results in the supplement of paper PMC10077471.

The full ranking holds about 1,900 compounds; the median of “excess over highest single agent (ExcessHSA) synergy score, 6x6 matrix” is about -83, and the lowest 2% start at about -370. The list shows a part of the results.

In the test the test system is NCI-H446. As to the kind of experiment: excess over highest single agent (ExcessHSA) synergy score, 6x6 matrix; higher = less synergy (more negative = stronger synergy). The note with it: 72 h; CellTiter-Glo viability.
For `COC(=O)C1=C(C)NC(C)=C(C(=O)OC(C)C)C1c1cccc2nonc12` (stereo not drawn) + Cc1sc2c(c1C)C(c1ccc(Cl)cc1)=N[C@@H](CC(=O)OC(C)(C)C)c1nnc(C)n1-2 [NCGC00250412-19], the “excess over highest single agent” value was -199.

Regarding `CCN1C[C@]2(OC(=O)c3ccccc3NC(C)=O)CC[C@H](OC)[C@@]34[C@H]5C[C@@H]6[C@@H](OC)C[C@](O)([C@@H](C[C@@H]23)[C@@H]14)[C@@]5(O)[C@@H]6OC` + Cc1sc2c(c1C)C(c1ccc(Cl)cc1)=N[C@@H](CC(=O)OC(C)(C)C)c1nnc(C)n1-2 [NCGC00250412-19], the “excess over highest single agent” value is -150. The value for `CC1(C)CCC2=C(O1)c1ccccc1C(=O)C2=O` + Cc1sc2c(c1C)C(c1ccc(Cl)cc1)=N[C@@H](CC(=O)OC(C)(C)C)c1nnc(C)n1-2 [NCGC00250412-19] was -50.6; that for `C[C@H](c1ccc(F)cc1CCCC(=O)O)N(c1cc(F)ccc1F)S(=O)(=O)c1ccc(Cl)cc1` + Cc1sc2c(c1C)C(c1ccc(Cl)cc1)=N[C@@H](CC(=O)OC(C)(C)C)c1nnc(C)n1-2 [NCGC00250412-19] was 86.1.

Turning to `Cc1c(CCOc2ccc(C(=O)O)cc2)c2cc(Cl)ccc2n1C(c1ccccc1)c1ccccc1` + Cc1sc2c(c1C)C(c1ccc(Cl)cc1)=N[C@@H](CC(=O)OC(C)(C)C)c1nnc(C)n1-2 [NCGC00250412-19], the “excess over highest single agent” value was -12. `S=C(NCc1ccc2c(c1)OCO2)N1CCN(c2ncnc3c2oc2ccccc23)CC1` + Cc1sc2c(c1C)C(c1ccc(Cl)cc1)=N[C@@H](CC(=O)OC(C)(C)C)c1nnc(C)n1-2 [NCGC00250412-19]: the “excess over highest single agent” value was -77.4. The value for `OCCN1C[C@H](O)[C@@H](O)[C@H](O)[C@H]1CO` + Cc1sc2c(c1C)C(c1ccc(Cl)cc1)=N[C@@H](CC(=O)OC(C)(C)C)c1nnc(C)n1-2 [NCGC00250412-19] was -198; that for `CC(C)C(=O)Nc1ccc([N+](=O)[O-])c(C(F)(F)F)c1` + Cc1sc2c(c1C)C(c1ccc(Cl)cc1)=N[C@@H](CC(=O)OC(C)(C)C)c1nnc(C)n1-2 [NCGC00250412-19] was 20. The value for `Cn1cnc([N+](=O)[O-])c1Sc1ncnc2[nH]cnc12` + Cc1sc2c(c1C)C(c1ccc(Cl)cc1)=N[C@@H](CC(=O)OC(C)(C)C)c1nnc(C)n1-2 [NCGC00250412-19] was -196; that for `CC(=O)Oc1cc2c(s1)CCN(C(C(=O)C1CC1)c1ccccc1F)C2` (stereo not drawn) + Cc1sc2c(c1C)C(c1ccc(Cl)cc1)=N[C@@H](CC(=O)OC(C)(C)C)c1nnc(C)n1-2 [NCGC00250412-19] was -100; that for `CCN(CC)CCCCNc1nc2cc(Cl)c(Cl)cc2nc1-c1ccc(-c2cccs2)s1` + Cc1sc2c(c1C)C(c1ccc(Cl)cc1)=N[C@@H](CC(=O)OC(C)(C)C)c1nnc(C)n1-2 [NCGC00250412-19] was -189.

Consider `O=C(O)C1=N[C@H](C(=O)O)CC(/C=C/N2c3cc(O)c(O[C@@H]4O[C@H](CO)[C@@H](O)[C@H](O)[C@H]4O)cc3C[C@H]2C(=O)O)=C1` + Cc1sc2c(c1C)C(c1ccc(Cl)cc1)=N[C@@H](CC(=O)OC(C)(C)C)c1nnc(C)n1-2 [NCGC00250412-19], for which the “excess over highest single agent” value is -53.2. The value for `CC(C)CN(C[C@@H](O)[C@H](Cc1ccccc1)NC(=O)O[C@H]1CO[C@H]2OCC[C@H]21)S(=O)(=O)c1ccc(N)cc1` + Cc1sc2c(c1C)C(c1ccc(Cl)cc1)=N[C@@H](CC(=O)OC(C)(C)C)c1nnc(C)n1-2 [NCGC00250412-19] was -111; that for `COc1cc(/C=C/C(=O)CC(=O)/C=C/c2ccc(O)c(OC)c2)ccc1O` + Cc1sc2c(c1C)C(c1ccc(Cl)cc1)=N[C@@H](CC(=O)OC(C)(C)C)c1nnc(C)n1-2 [NCGC00250412-19] was -26.7. Under `O=C(O)CSCC(=O)NC1CCSC1=O` (stereo not drawn) + Cc1sc2c(c1C)C(c1ccc(Cl)cc1)=N[C@@H](CC(=O)OC(C)(C)C)c1nnc(C)n1-2 [NCGC00250412-19] stands -73.4; under `Cc1cc2c(F)c(Oc3ncnn4cc(OC[C@@H](C)O)c(C)c34)ccc2[nH]1` + Cc1sc2c(c1C)C(c1ccc(Cl)cc1)=N[C@@H](CC(=O)OC(C)(C)C)c1nnc(C)n1-2 [NCGC00250412-19], 51. The value for `COC(=O)c1ccc2c(C(=Nc3ccc(N(C)C(=O)CN4CCN(C)CC4)cc3)c3ccccc3)c(O)[nH]c2c1` + Cc1sc2c(c1C)C(c1ccc(Cl)cc1)=N[C@@H](CC(=O)OC(C)(C)C)c1nnc(C)n1-2 [NCGC00250412-19] was -229; that for `Cc1cc(O)c2c(c1)C(=O)c1cc(O)cc(O)c1C2=O` + Cc1sc2c(c1C)C(c1ccc(Cl)cc1)=N[C@@H](CC(=O)OC(C)(C)C)c1nnc(C)n1-2 [NCGC00250412-19] was -61.2. As to `O=C1NC(=O)/C(=C/c2cccc(C(F)(F)F)c2)S1` + Cc1sc2c(c1C)C(c1ccc(Cl)cc1)=N[C@@H](CC(=O)OC(C)(C)C)c1nnc(C)n1-2 [NCGC00250412-19], the “excess over highest single agent” value amounted to 75.6. In the case of `Cn1cc(-c2ccc3nnc(Sc4ccc5ncccc5c4)n3n2)cn1` + Cc1sc2c(c1C)C(c1ccc(Cl)cc1)=N[C@@H](CC(=O)OC(C)(C)C)c1nnc(C)n1-2 [NCGC00250412-19], the “excess over highest single agent” value was -80.8. In the case of `C=C[C@H]1CN2CCC1C[C@H]2[C@H](O)c1ccnc2ccc(OC)cc12` (stereo partly drawn) + Cc1sc2c(c1C)C(c1ccc(Cl)cc1)=N[C@@H](CC(=O)OC(C)(C)C)c1nnc(C)n1-2 [NCGC00250412-19], the “excess over highest single agent” value was -222. The value for `Clc1ccc(Nc2nnc(Cc3ccncc3)c3ccccc23)cc1` + Cc1sc2c(c1C)C(c1ccc(Cl)cc1)=N[C@@H](CC(=O)OC(C)(C)C)c1nnc(C)n1-2 [NCGC00250412-19] was -38.8; that for `Fc1ccc([C@@H]2CCNC[C@H]2COc2ccc3c(c2)OCO3)cc1` + Cc1sc2c(c1C)C(c1ccc(Cl)cc1)=N[C@@H](CC(=O)OC(C)(C)C)c1nnc(C)n1-2 [NCGC00250412-19] was -55.7. Under `O=c1[nH]cnc2c1ncn2[C@H]1CC[C@@H](CO)O1` + Cc1sc2c(c1C)C(c1ccc(Cl)cc1)=N[C@@H](CC(=O)OC(C)(C)C)c1nnc(C)n1-2 [NCGC00250412-19] stands 0.095; under `CN(C/C=C/C#CC(C)(C)C)Cc1cccc2ccccc12` + Cc1sc2c(c1C)C(c1ccc(Cl)cc1)=N[C@@H](CC(=O)OC(C)(C)C)c1nnc(C)n1-2 [NCGC00250412-19], 5.53. Under `C[C@H]1COc2c(N3CCN(C)CC3)c(F)cc3c(=O)c(C(=O)O)cn1c23` + Cc1sc2c(c1C)C(c1ccc(Cl)cc1)=N[C@@H](CC(=O)OC(C)(C)C)c1nnc(C)n1-2 [NCGC00250412-19] stands -69.2.

Take `NC(CO)C(=O)NNCc1ccc(O)c(O)c1O` (stereo not drawn) + Cc1sc2c(c1C)C(c1ccc(Cl)cc1)=N[C@@H](CC(=O)OC(C)(C)C)c1nnc(C)n1-2 [NCGC00250412-19]: the “excess over highest single agent” value is -50.6. For the molecule `O=C1c2c(O)cc(O)cc2O[C@H](c2cc(O)c(O)c(O)c2)[C@H]1O` + Cc1sc2c(c1C)C(c1ccc(Cl)cc1)=N[C@@H](CC(=O)OC(C)(C)C)c1nnc(C)n1-2 [NCGC00250412-19], the “excess over highest single agent” value is -87.9. Under `CC(C)(C(=O)NCC(F)(F)C(F)(F)F)C(=O)N[C@@H]1C(=O)Nc2ccccc2-c2ccccc21` + Cc1sc2c(c1C)C(c1ccc(Cl)cc1)=N[C@@H](CC(=O)OC(C)(C)C)c1nnc(C)n1-2 [NCGC00250412-19] stands -193; under `CCC(C)n1ncn(-c2ccc(N3CCN(c4ccc(OCC5COC(Cn6cncn6)(c6ccc(Cl)cc6Cl)O5)cc4)CC3)cc2)c1=O` (stereo not drawn) + Cc1sc2c(c1C)C(c1ccc(Cl)cc1)=N[C@@H](CC(=O)OC(C)(C)C)c1nnc(C)n1-2 [NCGC00250412-19], -210.

With `CCOc1cc(N)c(Cl)cc1C(=O)NCC1CN(Cc2ccc(F)cc2)CCO1` (stereo not drawn) + Cc1sc2c(c1C)C(c1ccc(Cl)cc1)=N[C@@H](CC(=O)OC(C)(C)C)c1nnc(C)n1-2 [NCGC00250412-19], the “excess over highest single agent” value is -9.59. Under `C=CC(=O)Nc1cccc(Nc2nc(NC3CCC(N(C)C)CC3)nc3c2ncn3C(C)C)c1` (stereo not drawn) + Cc1sc2c(c1C)C(c1ccc(Cl)cc1)=N[C@@H](CC(=O)OC(C)(C)C)c1nnc(C)n1-2 [NCGC00250412-19] stands -137; under `O=C(O)CCNC(=O)c1ccc(/N=N/c2ccc(O)c(C(=O)O)c2)cc1` + Cc1sc2c(c1C)C(c1ccc(Cl)cc1)=N[C@@H](CC(=O)OC(C)(C)C)c1nnc(C)n1-2 [NCGC00250412-19], -42.5; under `C[C@H]1[C@H](OC(=O)CCC(=O)O)O[C@@H]2O[C@@]3(C)CC[C@H]4[C@H](C)CC[C@@H]1[C@@]24OO3` + Cc1sc2c(c1C)C(c1ccc(Cl)cc1)=N[C@@H](CC(=O)OC(C)(C)C)c1nnc(C)n1-2 [NCGC00250412-19], -116. The value for `C=CCn1c(=O)c2cnc(Nc3ccc(N4CCN(C)CC4)cc3)nc2n1-c1cccc(C(C)(C)O)n1` + Cc1sc2c(c1C)C(c1ccc(Cl)cc1)=N[C@@H](CC(=O)OC(C)(C)C)c1nnc(C)n1-2 [NCGC00250412-19] was -269; that for `CCCCCN(CCC12CC3CC(CC(C3)C1)C2)C(=O)NCCCc1ccncc1` + Cc1sc2c(c1C)C(c1ccc(Cl)cc1)=N[C@@H](CC(=O)OC(C)(C)C)c1nnc(C)n1-2 [NCGC00250412-19] was -174; that for `O=C1CCC(N2C(=O)c3ccccc3C2=O)C(=O)N1` (stereo not drawn) + Cc1sc2c(c1C)C(c1ccc(Cl)cc1)=N[C@@H](CC(=O)OC(C)(C)C)c1nnc(C)n1-2 [NCGC00250412-19] was -255. Regarding `COc1ccc(C(=O)c2c(C)n(CCN3CCOCC3)c3ccccc23)cc1` + Cc1sc2c(c1C)C(c1ccc(Cl)cc1)=N[C@@H](CC(=O)OC(C)(C)C)c1nnc(C)n1-2 [NCGC00250412-19], the “excess over highest single agent” value was -118.
